Measurements reported in PubChem BioAssay AID602196 (INSERM, 2012)
Purpose: 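Modifiers of cisplatin sensitivity in A549 cells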. Cell system: human A549 lung cancer cells. Knock-down reagent: siRNA pair against human genes. Duration: 48 h transfection before cisplatin; time from cisplatin to read-out not stated. Conditions: cisplatin at a dose killing half of control-siRNA cells; exact dose and duration not given. Measurement: 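Cisplatin cell death as a shift from the 50% death seen with control siRNA; siRNAs toxic or growth-blocking alone scored 0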. Reading the numbers: two-siRNA summed score (-2 to +2): higher = both siRNAs protect from cisplatin killing; -2 means both sensitise; mean protection from cisplatin (shift in death) and protection from cisplatin (shift in death), siRNA C and protection from cisplatin (shift in death), siRNA D: higher = protection from cisplatin killing. Active means: 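siRNAs harmful alone (LDH or WST-1) get 0; others get +1 for less and -1 for more cisplatin killing; genes are active when the two siRNAs give the same sign, summing to ±2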. Meaning of the calls: active = both siRNAs shift cisplatin killing the same way; inactive = no consistent shift, or siRNA harmful alone.
Here is a random part of about 23,000 deposited reagents. Over the whole deposit, 455 (2%) were called active. 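Active includes both protection and sensitisation; some change values fall well beyond the stated -50 to +50 range.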 A number with no mark means an inactive call. No sequences are given here. Not given: the amount of reagent.

gene symbol | two-siRNA summed score (-2 to +2) | mean protection from cisplatin (shift in death) (%) | protection from cisplatin (shift in death), siRNA C (%) | protection from cisplatin (shift in death), siRNA D (%)
ASB16 | 0 | 1.5 | -0.5 | 3.6
RHPN1 | 0 | -0.2 | -2.4 | 2
LOC440494 | 0 | -3.1 | -10.6 | 4.4
SPINT1 | 0 | 17.8 | 1.5 | 34.1
GRIA4 | 0 | 11.4 | 14.1 | 8.6
LOC400720 | 0 | 0.4 | 12.4 | -11.7
LOC441485 | 0 | 3.1 | -5.7 | 11.9
LOC283584 | 0 | 5.5 | 2.5 | 8.5
ACER2 | 1 | 8.5 | 17.8 | -0.8
CPEB4 | 0 | 3.8 | -5.8 | 13.4
ADCK2 | 1 | 2.9 | -9.2 | 15.1
CT55 | 0 | 4.1 | 3.1 | 5.1
TECPR1 | 0 | 0.5 | -4.9 | 5.9
RPLP0 | 0 | 3.9 | 9.6 | -1.9
PDE2A | 0 | -11.6 | -16.2 | -7
DNAJA3 | 0 | 4.7 | 4.4 | 4.9
FAM230I | 2 (active) | 36.1 | 30 | 42.2
RNF114 | 0 | 3.4 | 4.6 | 2.1
LOC440965 | 0 | 15.9 | 10.4 | 21.3
TBC1D9 | -1 | 0.3 | 14.4 | -13.9
MATN2 | 0 | -0.9 | -9.5 | 7.7
C1QB | 0 | -2.7 | 1 | -6.4
LOC399919 | 0 | 11 | 8.1 | 13.9
TRAF5 | 0 | 0.9 | 10.3 | -8.5
ENTPD6 | 1 | 14.2 | 6.4 | 21.9
DKFZp547K054 | 0 | 2.8 | 0.3 | 5.3
CENPVL3 | 0 | -2.7 | 5.3 | -10.7
GSTA1 | -1 | -14 | 1.7 | -29.7
LOC389437 | 0 | 4.5 | 4.3 | 4.8
DCAF4L2 | 1 | 8.1 | 8.1 | 8
OR10V1 | 0 | 4.6 | -3.7 | 12.9
TOR4A | -1 | -13.6 | -26.6 | -0.7
LOC105378085 | 0 | 9.1 | 4.2 | 14.1
LRRC40 | -1 | -12.7 | -12.9 | -12.4
UBE2D3 | 1 | 16.3 | 12.8 | 19.7
GPR88 | 0 | 3.6 | 0.2 | 7

Copied from above (4 entries):
gene symbol | two-siRNA summed score (-2 to +2) | mean protection from cisplatin (shift in death) (%) | protection from cisplatin (shift in death), siRNA C (%) | protection from cisplatin (shift in death), siRNA D (%)
LOC105378085 | 0 | 9.1 | 4.2 | 14.1
LRRC40 | -1 | -12.7 | -12.9 | -12.4
UBE2D3 | 1 | 16.3 | 12.8 | 19.7
GPR88 | 0 | 3.6 | 0.2 | 7

Further reagents:
gene symbol | two-siRNA summed score (-2 to +2) | mean protection from cisplatin (shift in death) (%) | protection from cisplatin (shift in death), siRNA C (%) | protection from cisplatin (shift in death), siRNA D (%)
PIGU | 1 | 3.4 | -4 | 10.9
PSCA | 0 | 2 | 3.2 | 0.8
LOC387762 | 1 | 22.3 | 21.6 | 23
RANBP6 | -1 | -7.2 | 1.4 | -15.8
PCDH19 | 1 | 11 | 17 | 5
ACTR5 | 0 | -0.8 | -0.7 | -0.8
EMILIN1 | 0 | 11.5 | 15.5 | 7.6
MYCBP | -1 | -7.7 | 9.4 | -24.8
IRS1 | -1 | -1 | -22.1 | 20
VTI1BP2 | 0 | 5 | -3.2 | 13.2
DHRS7 | 0 | -23.1 | -17.9 | -28.2
PSMA1 | 0 | 11.6 | 1.1 | 22.2
SEPTIN12 | 0 | 2.5 | -2.1 | 7.1
LOC388193 | 0 | 6.4 | -0.2 | 12.9
ZBTB10 | 0 | -0.4 | 0.1 | -1
ABCB11 | 0 | 13.3 | 6 | 20.6
LOC390363 | 1 | 6.5 | -4.2 | 17.2
LOC442451 | 0 | 12.1 | 14.8 | 9.4
RNF32 | 0 | 9.4 | 8.3 | 10.5
GPR83 | 0 | 4.4 | 9.2 | -0.4
BORCS6 | 0 | -0.8 | 10.2 | -11.8
